Assay results from patent publication US20230338431A1.
These are yes or no findings as the source states them, for the method shown. Some results given as binding are weak or reduced against the parent protein; the word gives no strength.

By UniProt entry, the sequences of proteins in these tests, tags left out.
UniProt P16220: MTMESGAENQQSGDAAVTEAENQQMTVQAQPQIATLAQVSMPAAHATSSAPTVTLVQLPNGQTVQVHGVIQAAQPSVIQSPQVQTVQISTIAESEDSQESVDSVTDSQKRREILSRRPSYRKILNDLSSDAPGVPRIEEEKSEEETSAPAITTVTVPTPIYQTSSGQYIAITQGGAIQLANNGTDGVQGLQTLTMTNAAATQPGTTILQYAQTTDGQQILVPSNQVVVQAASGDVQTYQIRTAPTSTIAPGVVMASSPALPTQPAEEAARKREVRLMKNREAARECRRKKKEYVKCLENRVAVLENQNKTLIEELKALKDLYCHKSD
UniProt P31749: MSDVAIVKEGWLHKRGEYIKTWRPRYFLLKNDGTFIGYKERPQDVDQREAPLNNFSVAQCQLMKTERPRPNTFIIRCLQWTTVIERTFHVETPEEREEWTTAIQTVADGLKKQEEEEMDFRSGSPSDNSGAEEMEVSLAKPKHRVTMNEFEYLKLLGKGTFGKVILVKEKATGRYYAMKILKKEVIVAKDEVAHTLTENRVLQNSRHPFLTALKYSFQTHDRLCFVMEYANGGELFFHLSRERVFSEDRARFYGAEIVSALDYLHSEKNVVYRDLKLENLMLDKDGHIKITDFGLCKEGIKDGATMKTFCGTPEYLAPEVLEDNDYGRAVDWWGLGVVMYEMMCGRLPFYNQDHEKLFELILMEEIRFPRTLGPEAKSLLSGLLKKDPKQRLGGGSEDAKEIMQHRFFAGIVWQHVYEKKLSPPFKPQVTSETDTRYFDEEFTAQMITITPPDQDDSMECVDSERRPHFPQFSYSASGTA

Key:
[1] = target: cAMP response element-binding protein 1 (CREB1) (human (endogenous in hTS cells)) (UniProt P16220); assay: immunoprecipitation from lysates of bFGF-treated hTS cells, then immunoblot
[2] = target: cAMP response element-binding protein 1 (CREB1) (human (endogenous in hTS cells)) (UniProt P16220); assay: immunoprecipitation from lysates of bFGF-treated hTS cells, then immunoblot (FIG. 10I)
[3] = target: cAMP response element-binding protein 1 (CREB1) (human (endogenous in hTS cells)) (UniProt P16220); assay: immunoprecipitation from lysates of bFGF-treated hTS cells, then immunoblot (FIG. 8D)

Measured: binding

protein kinase B (AKT) subunit AKT1 (from UniProt P31749 1-480) (enzyme)
binds: all assays above
